Data: publication PMC10781698
No constants are given. Whether binding was seen depends on the method and setting. In cells and extracts the contact can be indirect. Some results given as binding are weak or reduced against the parent protein; the word gives no strength. For some of these results: Tags and fused reporters may be left off the sequences shown. One block for each binder: values may come before it.

Key:
[1] = target: T1, CCDC88B (mouse (endogenous in thymus, BI-141 T cells and BMDCs)) (UniProt Q4QRL3); experiment: co-IP; BMDC lysates (20 mM HEPES pH 7.4, 300 mM NaCl, 1% NP-40); IP overnight with anti-CCDC88B anti-serum, protein A/G magnetic particles; blot for RASAL3 or ARHGEF2; Ccdc88b^Mut BMDCs as control
T1 sequence: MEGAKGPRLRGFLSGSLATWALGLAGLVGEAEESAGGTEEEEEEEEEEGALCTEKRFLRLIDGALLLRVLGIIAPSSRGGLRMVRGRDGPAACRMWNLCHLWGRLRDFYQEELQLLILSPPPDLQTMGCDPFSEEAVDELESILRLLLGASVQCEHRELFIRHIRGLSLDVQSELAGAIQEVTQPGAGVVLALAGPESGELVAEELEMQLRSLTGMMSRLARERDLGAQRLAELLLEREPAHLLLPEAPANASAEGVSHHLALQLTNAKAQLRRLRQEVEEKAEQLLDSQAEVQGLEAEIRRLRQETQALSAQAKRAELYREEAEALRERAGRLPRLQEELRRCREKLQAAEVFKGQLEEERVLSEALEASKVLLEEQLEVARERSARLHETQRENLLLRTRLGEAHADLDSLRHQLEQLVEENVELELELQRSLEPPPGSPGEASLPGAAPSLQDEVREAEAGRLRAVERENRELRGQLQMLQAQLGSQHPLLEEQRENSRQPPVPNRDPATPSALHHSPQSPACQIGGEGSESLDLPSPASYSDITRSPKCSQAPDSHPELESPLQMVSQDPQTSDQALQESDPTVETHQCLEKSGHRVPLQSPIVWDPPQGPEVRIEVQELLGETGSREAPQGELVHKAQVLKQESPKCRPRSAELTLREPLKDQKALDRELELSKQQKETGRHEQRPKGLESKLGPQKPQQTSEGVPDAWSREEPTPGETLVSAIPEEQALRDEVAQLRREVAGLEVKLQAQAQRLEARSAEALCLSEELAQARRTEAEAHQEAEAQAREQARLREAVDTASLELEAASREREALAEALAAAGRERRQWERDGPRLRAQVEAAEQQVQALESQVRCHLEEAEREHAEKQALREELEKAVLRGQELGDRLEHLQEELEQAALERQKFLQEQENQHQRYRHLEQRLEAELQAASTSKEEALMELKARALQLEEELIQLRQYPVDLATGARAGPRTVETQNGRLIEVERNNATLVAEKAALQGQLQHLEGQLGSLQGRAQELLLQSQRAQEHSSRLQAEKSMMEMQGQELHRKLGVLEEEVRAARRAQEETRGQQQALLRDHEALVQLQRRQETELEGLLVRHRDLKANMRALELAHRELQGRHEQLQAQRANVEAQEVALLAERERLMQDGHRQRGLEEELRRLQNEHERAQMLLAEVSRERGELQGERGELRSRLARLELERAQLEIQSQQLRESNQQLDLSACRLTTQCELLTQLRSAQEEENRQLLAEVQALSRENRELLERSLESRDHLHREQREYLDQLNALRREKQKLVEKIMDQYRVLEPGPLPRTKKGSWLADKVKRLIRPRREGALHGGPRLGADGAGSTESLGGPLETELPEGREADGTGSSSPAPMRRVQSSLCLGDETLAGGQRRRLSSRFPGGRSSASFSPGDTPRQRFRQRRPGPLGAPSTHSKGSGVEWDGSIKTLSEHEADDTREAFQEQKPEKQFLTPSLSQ

HA-CCDC88B = target: T2, HA-CCDC88B (UniProt Q4QRL3); experiment: co-IP; HEK293T transiently co-transfected pairwise; RIPA lysis buffer (20 mM Tris-HCl pH 7.5, 200 mM NaCl, 1% NP-40); IP with anti-FLAG and blot with anti-HA, or IP with anti-CCDC88B anti-serum and blot with anti-FLAG
T2 sequence: T1 sequence

binding [1]: binds
B1: RAS Protein Activator Like 3 (RASAL3) (protein, UniProt Q8C2K5 1-1041)
chain: MKPECGQTMFRTFWSRSRDSSAMDPPLQSEEDSQTQPSLPSPLTSYRWHTGGSGEKAAGGFRWGRFAGWGRALSHQEPMVNSQPAPRSLFRRVLSAPPKESRSNRLRFSKTLWGRHKNVAPLEPKPNPKAPEPELELVADPDLPVAQIPEPPTPDMPVWNIDGFTLLEGKLVMLGEEEGPRQIRVGSASSENSMQAALGNLKDAVRTPGKTEPEAAGSNQVHNVRKLLKRLKEKKRAKSELGAYTPRDGPPSALGSRESLATLSELDLGAERDVRVWPLHPSLLGEPYCFQVTWAGGSLCFSCRSSAERDRWIEDLRRQFQPSQDNVERQEMWLTVWVHEAKGLPRATVPGVRAELWLDGALLARTAPRAGPGQLFWAERFHFEALPPARRLSLRLRSAGPAGATVGRVVLELDEVSIPRAPAAGLERWFPVLGAPAGAVLRARIRVRCLRVLPSERYKELAEFLTFHYARLCGALEPALSAQAKEELAAAMVRVLRATGRAQALVTDLGTAELARCGGREALLFRENTLATKAIDEYMKLVAQEYLQDTLGQVVRCLCASTEDCEVDPSKCPTPELPKHQARLRDSCEEVFENIIHSYNCFPAELGSVFSSWREACKARGSEALGPRLVCASLFLRLLCPAILAPSLFGLAPEHPAPGPARTLTLIAKVIQNLANCAPFGEKEAYMAFMNSFLEDHGPAMQHFLDQVATVDADTTPSGYQGSGDLALQLAVLHVQLCTIFAELDQKTQDSLEPLPTILRAIEEGRPVPVSVPMRLPRISTQVQSSFFSGEKPGFLAPRDLPKHTPLISKSQSLRSFQGAGSWASRRPDEERPQRRPRPVLRTQSVPARRPTHRRPSAGSKPRPKGSLRMGPAPCGRAWTRASASLPRKPSVPWQRQMDQPGDRYQTTGTHRPVGKLAEIQCEVAIFREAQKALSLLVESLSTQVQALKEQQEHFRCQLQDLYSRLGAGISKLDSKGGLPSNGSHRLKSLEQRLTEMECSQDQLRDSLQSLQLLSKTPGSRSQPLPLKAPCVNGADLSMGT

binding (HA-CCDC88B): binds
B2: RASAL3-FLAG (protein, UniProt Q8C2K5 1-1041)
chain: B1 chain

binding (HA-CCDC88B): binds
B3: ARHGEF2-FLAG (protein, UniProt Q60875 1-985)
chain: MSRIESLTRARIDRSKEQATKTREKEKMKEAKDARYTNGHLFTTISVSGMTMCYACNKSITAKEALICPTCNVTIHNRCKDTLANCTKVKQKQQKAALLRNNTALQSVSLRSKTTTRERPTSAIYPSDSFRQSLLGSRRGLSSLSLAKSVSTTNIAGHFNDESPLGLRQILSQSTDSLNMRNRTLSVESLIDEGVEVFYNELMSDFEMDEKDFEADSWSLAVDSSFLQQHKKEVMKKQDVIYELIQTELHHVRTLKIMTRLFRTGMLEELQMEPEVVQGLFPCVDELSDIHTRFLNQLLERRRQALCPGSTRNFVIHRLGDLLISQFSGSNAEQMRKTYSEFCSRHTKALKLYKELYARDKRFQQFIRKMTRSAVLKRHGVQECILLVTQRITKYPVLINRILQNSHGVEEEYQDLASALGLVKELLSNVDQDVHELEKEARLQEIYNRMDPRAQTPVPGKGPFGRDELLRRKLIHEGCLLWKTATGRFKDVLLLLMTDVLVFLQEKDQKYIFTSLDKPSVVSLQNLIVRDIANQAKGMFLISSGPPEMYEVHAASRDDRTTWIRVIQQSVRLCPSREDFPLIETEDKAYLRRIKTKLQQKNQALVELLQKNVELFAEMVHFQALKAGFVGMPPPALPRGLFRLESFESLRGERLLKDALREVEGLKDLLLGPCVDLPMTSREPALPLDSDSGSCPGVTANGEARTFNGSIELCRADSDSSQKDRNGNQLRSPQEEVLQPLINLYGLLHGLQAVVVQQERLMEALFPEGPERWEKLSRANSRDGEAGRAAVASVTPEKQATELALLQRQHTLLQEELRRCQRLGEERATEAGSLEARLRESEQARALLEREAEEIRRQLAALGQNEPLPAEAPWARRPLDPRRRSLPAGDALYLSFNPPQPSRGHDRLDLPVTVRSLHRPFDDREAQELGSPEDRLQDSSDPDTGSEEEVSSRLSPPHSPRDFTRMQDIPEETESRDGEPTASES

binding [1]: binds
B4: Rho/Rac Guanine Nucleotide Exchange Factor 2 (ARHGEF2) (protein, UniProt Q60875 1-985)
chain: B3 chain
